# PMC10993414, “Water Quality Monitoring with the Multiplexed Assay MitoOxTox for Mitochondrial Toxicity, Oxidative Stress Response, and Cytotoxicity in AREc32 Cells” (Environmental Science & Technology, 2024)
# Like-named read-outs stand apart in the source and are kept apart here.
# Key:
# [1] = test system: mitochondrial membrane potential (MMP) in AREc32 cells; experiment: Disruption of mitochondrial membrane potential (m-MPI red/green ratio), MitoOxTox
# AREc32 cells = experiment: Cytotoxicity with ImageXpress high-content imaging, MitoOxTox
# [2] = test system: MMP disruption in AREc32 cells; experiment: Iceberg modeling (24DNP-EQbio, 24DNP-EQchem) for MMP disruption
# [3] = specificity ratio of MMP effect: IC10,baseline/EC10 (eq 5)
# [4] = toxic ratio: IC10,baseline/IC10 (ImageXpress) (eq 2)
SMILES,"SRbaseline [1, 3]",TR (AREc32 cells),TR (AREc32 cells; [4]),also measured
Cc1ccc(-c2c(Cl)nc(C#N)n2S(=O)(=O)N(C)C)cc1 [Cyazofamid],7.8,,,
CCCCOCCO [2-Butoxyethanol],1.3,1.0,,
CO/C=C(/C(=O)OC)c1ccccc1COc1cccc(C(F)(F)F)n1 [Picoxystrobin],240.6,4.0,,
N#CC(C#N)=NNc1cccc(Cl)c1 [Carbonyl cyanide 3-chlorophenyl-hydrazone],518,,55.4,
CC(C)Oc1cccc(NC(=O)c2ccccc2C(F)(F)F)c1 [Flutolanil],5.0,,0.9,
CNC(=O)/C(=N/OC)c1ccccc1COc1cc(C)ccc1C [Dimoxystrobin],120,,0.371,contribution of individual chemical to 24DNP-EQchem ([2]; WWTP effluent samples (5 samples)): up to 82%
Cc1nn(C)c(Oc2ccccc2)c1C=NOCc1ccc(C(=O)OC(C)(C)C)cc1 [Fenpyroximate],50002,0.9,,
COC(=O)N(OC)c1ccccc1COc1ccn(-c2ccc(Cl)cc2)n1 [Pyraclostrobin],468.8,,1.6,contribution of individual chemical to 24DNP-EQbio ([2]; WWTP effluent sample EU018): 0.62%; contribution of individual chemical to 24DNP-EQchem ([2]; WWTP effluent sample EU018): 74%
COc1ccc2cc3[n+](cc2c1OC)CCc1cc2c(cc1-3)OCO2 [Berberine],285426,,53.2,"TR (AREc32 cells; toxic ratio: IC10,baseline/IC10 (ImageXpress) (eq 2), listed as berberine): 53"
CO/N=C(/C1=NOCCO1)c1ccccc1Oc1ncnc(Oc2ccccc2Cl)c1F [Fluoxastrobin],16.0,,,
COc1cc2c(cc1OC)[C@@H]1C(=O)c3ccc4c(c3O[C@@H]1CO2)C=CC(C)(C)O4 [Deguelin],6647,3.0,,
N#CC(C#N)=NNc1ccc(OC(F)(F)F)cc1 [Carbonyl cyanide 4-(trifluoromethoxy)phenylhydrazone],2016,,88.4,
CCCCCC[C@H]1C(=O)O[C@H](C)[C@H](NC(=O)c2cccc(NC=O)c2O)C(=O)O[C@@H](C)[C@@H]1OC(=O)CC(C)C [Antimycin A],,,2.4,
CO/C=C(/C(=O)OC)c1ccccc1Oc1cc(Oc2ccccc2C#N)ncn1 [Azoxystrobin],64.0,,,contribution of individual chemical to 24DNP-EQbio ([2]; WWTP effluent samples): up to 0.12%
Oc1c(Cl)cc(Cl)c(Cl)c1Cc1c(O)c(Cl)cc(Cl)c1Cl [Hexachlorophene],,2.0,,SRbaseline [1]: 77.9
C=C(C)[C@H]1Cc2c(ccc3c2O[C@@H]2COc4cc(OC)c(OC)cc4[C@@H]2C3=O)O1 [Rotenone],17362,381,,

SMILES,"SRbaseline [1, 3]",TR (AREc32 cells),TR (AREc32 cells; [4]),also measured
CCOCCc1ccc(OCCN=c2[nH]cnc(CC)c2Cl)c(C)c1C [Pyrimidifen],13630,,0.659,
CC1=C(C(=O)Nc2ccccc2)SCCO1 [Carboxin],4.7,,,
N#Cc1cc(Br)c(O)c(Br)c1 [Bromoxynil],41.6,4.9,,
"O=[N+]([O-])c1ccc(O)c([N+](=O)[O-])c1 [2,4-Dinitrophenol]",102,2.9,,
CC1(C)CNC(=NN=C(/C=C/c2ccc(C(F)(F)F)cc2)/C=C/c2ccc(C(F)(F)F)cc2)NC1 [Hydramethylnon],37.5,145.0,,TR (AREc32 cells; listed as hydramethylnon): 145
Oc1c(Cl)c(Cl)c(Cl)c(Cl)c1Cl [Pentachlorophenol],,1.2,,SRbaseline [1]: 8.0
Cc1ccccc1C(=O)Nc1cccc(OC(C)C)c1 [Mepronil],4.1,1.8,,
CSC1=N[C@@](C)(c2ccccc2)C(=O)N1Nc1ccccc1 [Fenamidone],18.5,,1.9,
CC(C)(C)c1ccc(CSc2cnn(C(C)(C)C)c(=O)c2Cl)cc1 [Pyridaben],8705,,,
CCc1nn(C)c(C(=O)NCc2ccc(C(C)(C)C)cc2)c1Cl [Tebufenpyrad],10708,0.32,,
Cc1cc(O)ccc1Cl [4-Chloro-3-methylphenol],,1.3,,
CCCCCc1ccc(O)cc1 [4-Pentylphenol],14.0,,1.0,
CC(C)(C)c1ccc(CCOc2ncnc3ccccc23)cc1 [Fenazaquin],3030,0.324,,
Cc1nc(C(F)(F)F)c(C(=O)Nc2c(Br)cc(OC(F)(F)F)cc2Br)s1 [Thifluzamide],10.8,,1.4,
CON=C(C(=O)OC)c1ccccc1CON=C(C)c1cccc(C(F)(F)F)c1 [Trifloxystrobin],14.8,,,
